According to patent US9387206B2, “Therapeutic approaches for treating Alzheimer's disease” (PHARNEXT, priority 2009, dated 2016):
At least one structure is not confirmed: it was looked up by name or label, or the drawing left a doubt.

Tests used:
[1] = tested on: NGF-differentiated PC12 cells; assay: MTT viability of NGF-differentiated PC12 after Aβ25-35 intoxication; format: cell-based, rat; conditions: Aβ25-35 10 μM, 24 hours, drug added 1 hour before
Procedure: PC12 (Pheochromocytoma Rat, ATCC ref: CRL-1721) cells from [NT] CRL-1721) were rapidly thawed in 37° C. water. The supernatant was immediately put in 9 ml of a PC12 proliferation medium containing Dulbecco's modified Eagle's medium DMEM-F12 (Pan Biotech ref: P04-41450) with 15% heat-inactivated horse serum (Invitrogen ref: 16050-130), 2.5% of fetal bovine serum (FBS; Invitrogen ref: 16000-036), 1% of Penicillin 10,000 U/ml and Streptomycin 10 mg/ml (PS; Pan Biotech ref: P06-07100) and 1% of L-glutamine 200 mM (Pan Biotech ref: P04-80100). Cells were centrifuged (800 rounds/min, 4° C. for 5 min) and added in 5 ml PC12 proliferation medium, viable cells were counted with a Malassez cell using the […] exclusion test (Sigma). Then the cells were seeded at 3.10^4 cells per cm^2 in PC12 proliferation medium in 75 cm^2 plastic flasks (Greiner Ref: 658175) precoated with poly-L-lysine (10 μg/ml, Sigma Ref: P2636). Medium was changed every other day. After 3 days of culture, when cells reached 80% of confluence, they were washed in HBSS without calcium and magnesium (Pan Biotech Ref: […] P10-023100). The enzymatic reaction was stopped with PC12 proliferation medium added by 0.5 mg/ml of DNAse 1 grade 2 (Pan Biotech Ref: 760-37780100). […]

[2] = tested on: rat primary cortical neurons; assay: LDH release, human Aβ1-42 toxicity on rat primary cortical cells; format: cell-based; conditions: drug alone
Procedure: Primary rat cortical neurons are cultured as described previously.
Briefly, Aβ1-42 peptide was reconstituted in defined culture medium at 40 μM (mother solution) and was slowly shacked at +37° C. for 3 days in the dark for aggregation. The control medium was prepared in the same conditions.
After 10 days of neuron culture, the drug was solved in culture medium (+0.1% DMSO) and then pre-incubated with neurons for 1 hour before the Aβ1-42 application (in a final volume per culture well of 100 μl). […] Cortical neurons were intoxicated for 24 hours. Three separate cultures were performed per condition, 6 wells per condition.
Estradiol-β at 100 and 150 nM were used as a reference test compound and BDNF at 50 ng/ml was used as a positive control. Three separate cultures were performed per condition, […].
Estradiol-β and BDNF were solved in culture medium and pre-incubated for 1 h before the aggregated amyloid-β1-42 application.
Lactate Dehydrogenase (LDH) Activity Assay
This colorimetric assay for the quantification of cell toxicity is based on the measurement of lactate dehydrogenase (LDH) activity released from the cytosol of dying cells into the supernatant.
All values are expressed as mean±s.e.mean of the 3 cultures (n=6 per condition). […]

| Structure (SMILES) | Prevention of Aβ25-35 intoxication, cell viability (MTT) [1] | Prevention of Aβ25-35 intoxication, cell viability (MTT) ([1]; listed as amlodipin) | Protective effect in Aβ1-42 intoxicated neuronal cells [2] |
| --- | --- | --- | --- |
| CCOC(=O)C1=C(COCCN)NC(C)=C(C(=O)OC)C1c1ccccc1Cl (stereo not drawn) [Amlodipine] | significantly prevented | strong neuroprotective effect |  |
| CCN(CC)C(=O)N1CCN(C)CC1 [Carbamazine] |  |  | + |
